Where a chain is given by its changes, count along the chain named. For part of these data: Protein sequences can lack the tags named with them. The exact form of at least one protein or probe is not confirmed. For part of these data: At least one verdict rests on a figure or table, not on a statement of the authors.
How the values were obtained:
[1] = target: T1, FBF-2 RBD (Caenorhabditis elegans) (UniProt Q09312); assay: EMSA; details: EMSA: 5 nM RNA, 10 mM HEPES pH 7.4, 75 mM NaCl, 0.01% Tween 20, 0.1 mg/ml BSA, 0.1 mg/ml yeast tRNA, 2 mM DTT, 4 C overnight, recombinant protein, residues 164-575, protein details: His-SUMO, removed by TEV, label: 3'-Cy5
T1 sequence (looked up): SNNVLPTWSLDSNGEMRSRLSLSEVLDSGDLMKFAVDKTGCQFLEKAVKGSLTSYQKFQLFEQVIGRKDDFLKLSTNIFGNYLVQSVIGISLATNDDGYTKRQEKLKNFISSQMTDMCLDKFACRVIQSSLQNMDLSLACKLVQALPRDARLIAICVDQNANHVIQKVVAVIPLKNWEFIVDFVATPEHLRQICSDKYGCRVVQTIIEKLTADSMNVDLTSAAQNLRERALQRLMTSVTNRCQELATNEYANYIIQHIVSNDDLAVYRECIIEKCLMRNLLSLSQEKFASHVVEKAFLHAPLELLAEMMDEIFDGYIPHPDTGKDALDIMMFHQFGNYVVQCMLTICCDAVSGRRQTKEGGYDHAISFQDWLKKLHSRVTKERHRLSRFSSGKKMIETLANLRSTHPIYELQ

[2] = target: T2, FBF-2 RBD+CT (Caenorhabditis elegans) (UniProt Q09312); assay: EMSA; details: EMSA: 5 nM RNA, 10 mM HEPES pH 7.4, 75 mM NaCl, 0.01% Tween 20, 0.1 mg/ml BSA, 0.1 mg/ml yeast tRNA, 2 mM DTT, 4 C overnight, recombinant protein, residues 164-632, protein details: His6-SUMO, removed by Ulp1, label: 3'-Cy5
T2 sequence (looked up): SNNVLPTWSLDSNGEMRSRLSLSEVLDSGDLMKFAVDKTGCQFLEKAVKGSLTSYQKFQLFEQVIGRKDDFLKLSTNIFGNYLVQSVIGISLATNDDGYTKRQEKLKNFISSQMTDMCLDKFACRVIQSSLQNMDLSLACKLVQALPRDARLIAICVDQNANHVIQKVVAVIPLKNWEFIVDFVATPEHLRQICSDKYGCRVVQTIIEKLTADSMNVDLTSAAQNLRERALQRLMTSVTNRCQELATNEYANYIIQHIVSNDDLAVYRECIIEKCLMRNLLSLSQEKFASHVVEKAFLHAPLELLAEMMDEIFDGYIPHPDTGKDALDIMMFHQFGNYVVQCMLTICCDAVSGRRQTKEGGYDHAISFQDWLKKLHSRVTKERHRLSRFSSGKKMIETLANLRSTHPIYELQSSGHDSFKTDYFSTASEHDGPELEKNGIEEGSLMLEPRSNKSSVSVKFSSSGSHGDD

[3] = test system: FBF-2 RBD + LST-1 19-98 S26C; assay: FRET; details: 2 uM FBF-2 RBD, lower FRET than S74C (geometry, not affinity); recombinant protein; protein details: His-SUMO, removed by TEV,Cy5-maleimide on C26; label: 5'-Cy3
[4] = test system: FBF-2 RBD+CT + LST-1 67-98 (PIM-B); assay: EMSA; details: 50 uM LST-1 67-98; EMSA: 5 nM RNA, 10 mM HEPES pH 7.4, 75 mM NaCl, 0.01% Tween 20, 0.1 mg/ml BSA, 0.1 mg/ml yeast tRNA, 2 mM DTT, 4 C overnight; recombinant protein; label: …
[5] = target: T3, FBF-2 RBD+CT L610A (Caenorhabditis elegans) (UniProt Q09312); assay: EMSA; details: EMSA: 5 nM RNA, 10 mM HEPES pH 7.4, 75 mM NaCl, 0.01% Tween 20, 0.1 mg/ml BSA, 0.1 mg/ml yeast tRNA, 2 mM DTT, 4 C overnight; recombinant protein; residues 164-632; label: 3'-Cy5
T3 sequence (looked up): T2 sequence (looked up) with L447A

[6] = test system: FBF-2 RBD+CT + LST-1 19-50 (PIM-A); assay: EMSA; details: 150 uM LST-1 19-50; EMSA: 5 nM RNA, 10 mM HEPES pH 7.4, 75 mM NaCl, 0.01% Tween 20, 0.1 mg/ml BSA, 0.1 mg/ml yeast tRNA, 2 mM DTT, 4 C overnight; recombinant protein; label: …

“AUCAACAGCCAUACAUCAACAUGCCAUUU [FBEam-FBEa*m]” gave a Kd ([1]; apparent Kd) of over 2500 nM.

Sequence “AUCAACAGCCAUACAUCAUGUUGCCAUUU [FBEam-FBEa*]” has a Kd ([1]; apparent Kd, Hill fit) of 323 nM and a Kd ([2]; apparent Kd) of over 5000 nM.

“AUCAUGUGCCAUACAUCAUGUUGCCAUUU [gld-1 FBEa-FBEa* (FRET)]”: binds [3].

AUCAUGUUGCCAUUU [gld-1 FBEa* (EMSA)] showed a Kd [1] of 427 nM, a Kd [2] of over 2500 nM and a Kd [4] of 300 nM. It also gave a Kd [5] of 385 nM and a Kd [6] of over 2500 nM.
